Assay results: patent US20200024362A1

Protein sequences, listed by entry. Tags and fused reporters are not part of them. Lines headed by an entry give the natural chain unless they say otherwise; changes in a name come on top.
UniProt P03951: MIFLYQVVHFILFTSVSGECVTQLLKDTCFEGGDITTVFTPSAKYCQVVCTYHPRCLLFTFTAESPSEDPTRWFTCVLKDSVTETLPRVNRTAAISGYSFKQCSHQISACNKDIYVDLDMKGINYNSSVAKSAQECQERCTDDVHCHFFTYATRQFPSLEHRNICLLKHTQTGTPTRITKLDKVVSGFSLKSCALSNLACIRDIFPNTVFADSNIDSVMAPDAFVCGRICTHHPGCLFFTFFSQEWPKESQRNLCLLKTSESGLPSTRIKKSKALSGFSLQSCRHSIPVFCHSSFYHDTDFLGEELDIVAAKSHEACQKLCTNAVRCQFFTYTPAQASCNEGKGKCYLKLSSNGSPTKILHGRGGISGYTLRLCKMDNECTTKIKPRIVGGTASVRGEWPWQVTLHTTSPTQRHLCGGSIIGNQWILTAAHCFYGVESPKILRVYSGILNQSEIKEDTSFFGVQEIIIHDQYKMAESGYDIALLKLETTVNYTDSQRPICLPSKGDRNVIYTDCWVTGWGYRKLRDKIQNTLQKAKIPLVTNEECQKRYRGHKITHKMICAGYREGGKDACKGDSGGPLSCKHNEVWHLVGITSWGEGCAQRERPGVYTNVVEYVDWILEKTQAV

Key:
human factor XIa (human) [1] = target: human factor XIa (human) (UniProt P03951); test: SPR, antibody captured, FXIa flowed
human factor XIa (human) [2] = target: human factor XIa (human) (UniProt P03951); test: SPR, antibody captured on sensor chip, FXIa flowed
human factor XIa (human) [3] = target: human factor XIa (human) (UniProt P03951); test: SPR (Biacore T200), antibody captured on sensor chip, FXIa flowed
human factor XIa (human) [4] = target: human factor XIa (human) (UniProt P03951); test: SPR (Biacore T200), antibody captured on anti-human IgG CM5 chip, FXIa flowed, 1:1 fit

Measured: binding

B1: h-19F6 (antibody, V domains shown)
VH: EVQLVESGGGLVQPGRSLRLSCTASGFTFSKYAMSWVRQAPGKGLEWVSAINYDGSTTYYADSVKGRFTLSRDNSKNTLYLQMNSLRAEDTAVYYCARHPFNNFGIWFAYWGQGTLVTVS
VL: QFQLTQPSSVSASVGDRVTITCERSSGDIGDSYVSWYQQKPGQPPKNVIYADDQRPSGVPDRFSGSIDGSGNSASLTISSLQAEDAADYFCQSYDSNIDFNPVFGGGTKLEVK
binds: human factor XIa (human) [1] | human factor XIa (human) [2] | human factor XIa (human) [3] | human factor XIa (human) [4]

B2: h-42A5 (antibody, V domains shown)
VH: QVTLKESGPVLVKPTETLTLTCTVSGFSLTSYHLHWIRQPPGKALEWMGLMWRDGDTSYNSRLKSRLTISRDTSKSQVVLTMTNMDPVDTATYYCARGMTLATPFLYWGQGTLVTVSS
VL: DVVLTQTPLSLSVTPGQPASISCRSSQSLESSDGNTYLEWYLQKPGQSPQLLIYGVSNRFSGVPDRFSGSGSGTDFTLKISRVEAEDLGVYYCFQATRDPFTFGQGTKLEIKR
binds: human factor XIa (human) [1] | human factor XIa (human) [2] | human factor XIa (human) [3] | human factor XIa (human) [4]

B3: h-34F8 (antibody, V domains shown)
VH: QVQLQESGPGLVKPSETLSLTCTVSGFSLTTYHVHWVRQPPGKGLEWIGIMWRDGDTYYNSSLKSRVTISRDTSKNQVSLKLSSVTAADTAVYFCARGGTLTTPFTYWGQGTLVTVSS
VL: B2 VL with S12P, Q17E, S32R, L51V, I53L, F60L, L88V, R98H, D99G
binds: human factor XIa (human) [1] | human factor XIa (human) [4]

Residue numbers refer to the chain shown, from its start. No constants are given. Whether binding was seen depends on the method and setting. A result given as binding can be weak or reduced; the word gives no strength.
